Test results: publication PMC6565636, “Rif1 promotes association of G-quadruplex (G4) by its specific G4 binding and oligomerization activities”

Experiments:
[1] = biological target: T1, Rif1 full-length (His6-Rif1-FLAG3) (Schizosaccharomyces pombe (fission yeast)) (UniProt Q96UP3); test: EMSA; conditions: EMSA with oligos heat-denatured and renatured in 50 mM KCl/40% PEG200 (Fig 5: 50 mM Tris-HCl pH 7.5 with KCl, NaCl or none), gel shift buffer 40 mM Hepes-KOH pH 7.6, recombinant protein, residues 1-1400, protein details: N-term His6, C-term FLAG3, label: 32P
T1 sequence (looked up): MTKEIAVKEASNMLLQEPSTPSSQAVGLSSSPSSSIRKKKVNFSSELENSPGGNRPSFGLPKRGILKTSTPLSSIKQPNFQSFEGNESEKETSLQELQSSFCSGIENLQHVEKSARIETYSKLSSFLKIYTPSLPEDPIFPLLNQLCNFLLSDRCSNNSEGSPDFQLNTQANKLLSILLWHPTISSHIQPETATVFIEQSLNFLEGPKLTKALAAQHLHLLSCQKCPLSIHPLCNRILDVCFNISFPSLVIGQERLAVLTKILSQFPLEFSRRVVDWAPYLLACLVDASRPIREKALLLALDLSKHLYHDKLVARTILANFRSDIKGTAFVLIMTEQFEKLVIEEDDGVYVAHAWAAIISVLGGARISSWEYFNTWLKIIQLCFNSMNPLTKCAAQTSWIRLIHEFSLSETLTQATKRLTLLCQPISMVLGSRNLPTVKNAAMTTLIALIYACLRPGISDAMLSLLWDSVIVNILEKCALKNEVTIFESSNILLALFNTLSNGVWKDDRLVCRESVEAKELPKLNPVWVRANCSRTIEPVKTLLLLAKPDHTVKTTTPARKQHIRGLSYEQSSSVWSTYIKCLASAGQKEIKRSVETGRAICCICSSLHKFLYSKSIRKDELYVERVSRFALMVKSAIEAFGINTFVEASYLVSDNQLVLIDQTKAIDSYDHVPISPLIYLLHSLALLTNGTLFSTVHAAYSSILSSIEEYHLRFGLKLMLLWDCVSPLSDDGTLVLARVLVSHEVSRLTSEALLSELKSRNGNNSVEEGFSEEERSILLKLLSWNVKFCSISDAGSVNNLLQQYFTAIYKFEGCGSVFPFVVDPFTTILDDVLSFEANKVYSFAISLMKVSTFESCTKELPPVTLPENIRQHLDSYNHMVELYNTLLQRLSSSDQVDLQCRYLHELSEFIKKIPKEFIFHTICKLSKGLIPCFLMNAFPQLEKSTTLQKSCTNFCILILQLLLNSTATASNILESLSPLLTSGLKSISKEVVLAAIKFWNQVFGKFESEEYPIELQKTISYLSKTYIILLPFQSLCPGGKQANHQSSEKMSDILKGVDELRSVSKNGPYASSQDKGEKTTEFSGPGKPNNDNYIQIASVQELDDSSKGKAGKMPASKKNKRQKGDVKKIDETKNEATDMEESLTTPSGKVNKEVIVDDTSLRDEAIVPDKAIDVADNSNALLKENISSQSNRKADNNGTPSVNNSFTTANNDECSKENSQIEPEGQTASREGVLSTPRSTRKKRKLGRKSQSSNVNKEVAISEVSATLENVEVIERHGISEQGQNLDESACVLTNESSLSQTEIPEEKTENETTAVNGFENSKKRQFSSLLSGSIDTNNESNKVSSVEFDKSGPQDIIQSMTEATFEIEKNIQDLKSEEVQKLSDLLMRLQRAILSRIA

[2] = biological target: T1, Rif1 full-length (His6-Rif1-FLAG3) (Schizosaccharomyces pombe (fission yeast)); test: pull-down; conditions: co-pull-down with biotin-T6G24 and Rif1, 1 M NaCl wash; recombinant protein; residues 1-1400; protein details: N-term His6, C-term FLAG3; label: 32P; single-stranded DNA
[3] = 50 mM NaCl, folded or branched DNA
[4] = no salt, folded or branched DNA

AAGGGTGGGTGTAAGTGTGGGTGGGT [CEB25]
binding result ([1]; KCl, folded or branched DNA): binds more weakly

AGGGCTAGGGCTACTAGGGGGG [Htelo4(GGGGGG)_3nt_spacer]
binding result [1, 3]: binds more weakly | binding result [1, 4]: binds more weakly

AGGGTAGGGAGGGAGGGTGG [CEB1_TA]
binding result [1, 3]: binds more weakly | binding result [1, 4]: binds more weakly

AGGGTTAGGGAGGGAGGGTGG [CEB1_TTA]
binding result [1, 3]: binds more weakly | binding result [1, 4]: binds more weakly

AGTGGGG
binding result ([1]; KCl, folded or branched DNA): binds more weakly

AGTGGGGG
binding result ([1]; KCl, folded or branched DNA): binds more weakly

GGGGGGGG [G8]
binding result ([1]; bound to a small extent, folded or branched DNA): binds more weakly

GGGTGGGAGGAGGGT [93del_deltaG]
binding result ([1]; KCl, folded or branched DNA): binds more weakly

GGGUUGCGGAGGGUGGGC [TERC18]
binding result ([1]; KCl): binds more weakly

TAGGGTTAGGGTTAGGGGGG [Htelo1_no_spacer_2]
binding result [1, 3]: binds more weakly | binding result [1, 4]: binds more weakly

TTACAGGTTACAGGTTACAGG (double strand) [Taz1BS]
binding result ([1]; without Taz1): no binding

TTGGGGGGTGGGTGGGTGGGT [T95_2T_GGG]
binding result ([1]; KCl, weakly bound in Fig S3, folded or branched DNA): binds more weakly

TTGGGTGGGTGGGTGGGT [T95_2T]
binding result ([1]; KCl, folded or branched DNA): binds more weakly

TTTTTTGAGAGAGAGAGAGAGAGAGAGAGA [T6(GA)12]
binding result [2]: no binding

Negatives hold for the conditions tested. Protein sequences can lack the tags named with them. For part of these data: Weaker means in comparison with the reference protein, sequence or condition of that experiment. For part of these data: The exact form of at least one protein or probe is not confirmed.
